Data taken from PMC10588558, “On the regulation of human D‐aspartate oxidase” (Protein Science : A Publication of the Protein Society, 2023).
These are yes or no findings as the source states them, for the method shown. In cells and extracts the contact can be indirect. Some binding calls cover weakened binding; strength is not graded here. Tags and fused reporters may be left off the sequences shown.

Molecular target: T1, 3xFLAG-hDASPO 341 expressed in U87 cells (human) (UniProt Q99489)
T1 sequence: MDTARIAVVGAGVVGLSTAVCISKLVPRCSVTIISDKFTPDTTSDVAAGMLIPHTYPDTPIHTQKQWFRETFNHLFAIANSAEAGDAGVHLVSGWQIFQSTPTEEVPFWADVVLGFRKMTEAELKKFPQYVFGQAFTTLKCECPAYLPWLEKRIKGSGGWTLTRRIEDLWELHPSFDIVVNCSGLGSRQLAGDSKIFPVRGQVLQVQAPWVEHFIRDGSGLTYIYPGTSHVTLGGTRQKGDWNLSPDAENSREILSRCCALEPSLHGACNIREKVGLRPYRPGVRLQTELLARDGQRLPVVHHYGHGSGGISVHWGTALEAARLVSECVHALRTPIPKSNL
Assay: proximity ligation; Duolink In Situ Orange PLA on fixed U87 cells stably expressing pLG72-ECFP and transfected with 3xFLAG-hDASPO 341 (24, 48, 72 h); mouse anti-FLAG and rabbit anti-pLG72 antibodies; confocal microscopy

B1: pLG72 R30K variant (Arg30Lys), recombinant (natural protein, UniProt P59103 1-153, looked up)
chain: MLEKLMGADSLQLFRSRYTLGKIYFIGFQKSILLSKSENSLNSIAKETEEGRETVTRKEGWKRRHEDGYLEMAQRHLQRSLCPWVSYLPQPYAELEEVSSHVGKVFMARNYEFLAYEASKDRRQPLERMWTCNYNQQKDQSCNHKEITSTKAE
notes: primate-specific protein pLG72 (18 kDa), Arg30Lys variant related to schizophrenia susceptibility; kept in 0.06% N-lauroyl sarcosine; also called R30K pLG72; source: E. coli BL21-Codon plus (DE3)-RIL, recovered from insoluble inclusion bodies, purified
For B1, the binding was “binds”.
